From doi:10.1101/2020.05.04.076208 come the findings set out here.

The chains behind the UniProt entries cited, without tags or fusion partners. Where a name states a change or a piece, a line headed by the entry shows the natural chain unless it says otherwise. Residues count along the entry.
UniProt Q8R550: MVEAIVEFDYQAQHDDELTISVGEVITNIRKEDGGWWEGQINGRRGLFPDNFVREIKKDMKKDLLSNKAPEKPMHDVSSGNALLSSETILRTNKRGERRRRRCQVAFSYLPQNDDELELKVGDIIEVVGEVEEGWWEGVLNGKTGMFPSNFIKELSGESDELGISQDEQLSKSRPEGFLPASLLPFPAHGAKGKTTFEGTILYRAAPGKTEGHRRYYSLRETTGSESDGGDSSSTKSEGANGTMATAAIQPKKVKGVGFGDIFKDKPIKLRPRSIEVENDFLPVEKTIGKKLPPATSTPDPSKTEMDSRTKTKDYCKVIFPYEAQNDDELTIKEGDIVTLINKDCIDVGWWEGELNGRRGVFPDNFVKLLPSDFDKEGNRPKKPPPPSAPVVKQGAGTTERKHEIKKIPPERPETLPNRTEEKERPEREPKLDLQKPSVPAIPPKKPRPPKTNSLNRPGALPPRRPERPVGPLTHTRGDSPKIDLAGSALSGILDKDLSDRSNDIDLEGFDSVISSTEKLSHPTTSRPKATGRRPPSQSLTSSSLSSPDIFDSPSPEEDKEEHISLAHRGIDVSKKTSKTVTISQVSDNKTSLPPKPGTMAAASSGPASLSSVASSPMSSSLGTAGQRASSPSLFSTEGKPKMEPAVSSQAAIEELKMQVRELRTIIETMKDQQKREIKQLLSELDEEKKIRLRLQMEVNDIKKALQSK
UniProt P08003, residues 21-638: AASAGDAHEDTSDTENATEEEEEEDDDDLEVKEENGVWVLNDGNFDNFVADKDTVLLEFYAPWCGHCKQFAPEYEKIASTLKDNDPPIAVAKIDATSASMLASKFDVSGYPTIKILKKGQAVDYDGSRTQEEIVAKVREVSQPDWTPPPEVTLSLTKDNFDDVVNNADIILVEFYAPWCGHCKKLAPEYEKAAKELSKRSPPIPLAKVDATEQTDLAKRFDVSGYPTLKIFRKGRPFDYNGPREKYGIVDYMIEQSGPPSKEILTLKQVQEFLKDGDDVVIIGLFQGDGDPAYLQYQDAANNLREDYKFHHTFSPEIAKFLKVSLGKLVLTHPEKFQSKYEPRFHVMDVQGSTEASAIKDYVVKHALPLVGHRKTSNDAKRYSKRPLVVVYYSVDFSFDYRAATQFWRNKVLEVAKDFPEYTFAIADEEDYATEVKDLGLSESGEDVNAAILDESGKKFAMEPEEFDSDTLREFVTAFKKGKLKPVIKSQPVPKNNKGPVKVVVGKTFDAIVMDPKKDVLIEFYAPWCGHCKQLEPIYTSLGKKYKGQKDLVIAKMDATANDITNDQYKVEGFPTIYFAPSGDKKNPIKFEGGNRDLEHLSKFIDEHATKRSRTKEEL

Assay [1] addresses GFP-SH3KBP1 C-terminal part (UniProt Q8R550). Nature of the assay: co-IP.
Assay [2] addresses GFP-SH3KBP1 deletion mutant without the C-terminus coiled-coil domain. Nature of the assay: co-IP.

These are yes or no findings as the source states them, for the method shown. In cells and extracts the contact can be indirect. Binding calls can cover weak binding; strength is not graded here.

Take “Endoplasmic reticulum resident protein 72 (from UniProt P08003 21-638)”: in assay [1], the binding result is on record as “binds”.

B1: Calnexin (protein, UniProt P35564 21-591)
chain: HDGHDDDAIDIEDDLDDVIEEVEDSKSKSDASTPPSPKVTYKAPVPTGEVYFADSFDRGSLSGWILSKAKKDDTDDEIAKYDGKWEVDEMKETKLPGDKGLVLMSRAKHHAISAKLNKPFLFDTKPLIVQYEVNFQNGIECGGAYVKLLSKTAELSLDQFHDKTPYTIMFGPDKCGEDYKLHFIFRHKNPKTGVYEEKHAKRPDADLKTYFTDKKTHLYTLILNPDNSFEILVDQSVVNSGNLLNDMTPPVNPSREIEDPEDRKPEDWDERPKIADPDAVKPDDWDEDAPSKIPDEEATKPEGWLDDEPEYIPDPDAEKPEDWDEDMDGEWEAPQIANPKCESAPGCGVWQRPMIDNPNYKGKWKPPMIDNPNYQGIWKPRKIPNPDFFEDLEPFKMTPFSAIGLELWSMTSDIFFDNFIISGDRRVVDDWANDGWGLKKAADGAAEPGVVLQMLEAAEERPWLWVVYILTVALPVFLVILFCCSGKKQSNAMEYKKTDAPQPDVKDEEGKEEEKNKRDEEEEEEKLEEKQKSDAEEDGVTGSQDEEDSKPKAEEDEILNRSPRNRKPRRE
Turning to B1, the binding entry in assay [1] and in assay [2] was “binds” each time.
